This passage reports binding results from patent publication US20190322748A1.

By UniProt entry, the sequences of proteins in these tests, tags left out. Where a name states a change or a piece, a line headed by the entry shows the natural chain unless it says otherwise.
UniProt Q15116: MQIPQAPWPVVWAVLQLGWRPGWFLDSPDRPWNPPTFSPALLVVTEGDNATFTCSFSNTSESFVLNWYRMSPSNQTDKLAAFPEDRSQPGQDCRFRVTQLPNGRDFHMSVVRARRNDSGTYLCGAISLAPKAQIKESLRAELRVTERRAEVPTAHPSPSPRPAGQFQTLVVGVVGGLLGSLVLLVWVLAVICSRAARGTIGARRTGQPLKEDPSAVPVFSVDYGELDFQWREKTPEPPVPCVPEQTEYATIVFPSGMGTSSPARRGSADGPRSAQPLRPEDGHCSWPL

This assay concerns the target full-length human PD1 on cells (CHO-K1 stably transfected with plasmid 15311_hPD1-fl_pUC_Neo) (human) (UniProt Q15116). Nature of the assay: cell ELISA on CHO-PD1 (row 'CHO-PD1 EC50'). A general note: In an ELISA, binding on a coated surface is turned into a signal by an enzyme label.

These are yes or no findings as the source states them, for the method shown. Some binding calls cover weakened binding; strength is not graded here.

B1: PD1-0103-0314 (antibody, human IgG1, V domains shown)
VH: EVQLLESGGGLVQPGGSLRLSCAASGFSFSSYTMSWVRQAPGKGLEWVATISGGGRDIYYPDSVKGRFTISRDNSKNTLYLQMNSLRAEDTAVYYCVLLTGRVYFALDSWGQGTLVTVSS
VL: EIVLTQSPATLSLSPGERATLSCRASESVDTSDNSFIHWYQQKPGQSPRLLIYRSSTLESGIPARFSGSGSGTDFTLTISSLEPEDFAVYYCQQNYDVPWTFGQGTKVEIK
Turning to B1, the binding entry is “binds”.

B2: PD1-0103-0315 (antibody, human IgG1, V domains shown)
VH: EVQLLESGGGLVQPGGSLRLSCAASGFSFSSYTMSWVRQAPGKGLEWVATISGGGRDIYYPDSVKGRFTISRDNSKNTLYLQMNSLRAEDTAVYYCVLLTGRVYFALDSWGQGTLVTVSS
VL: EIVLTQSPATLSLSPGERATLSCRASESVDTSDNSFIHWYQQKPGQSPRLLIYRSSTLESGIPARFSGSGSGTDFTLTISSLEPEDFAVYYCQQNYDVPWTFGQGTKVEIK
Take B2: the binding entry is “binds”.
